{"sequences": {"note": "Protein sequences, listed by entry. Tags and fused reporters are not part of them.", "UniProt Q0JBA9, entry or part of it": "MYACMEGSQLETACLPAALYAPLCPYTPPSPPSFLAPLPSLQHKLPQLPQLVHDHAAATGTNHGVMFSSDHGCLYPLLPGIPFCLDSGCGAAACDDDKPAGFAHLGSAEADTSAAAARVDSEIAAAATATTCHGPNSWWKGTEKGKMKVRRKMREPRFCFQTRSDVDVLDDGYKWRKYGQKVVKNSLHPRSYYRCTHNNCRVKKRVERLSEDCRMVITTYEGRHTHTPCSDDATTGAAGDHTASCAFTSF"}, "source": "paper PMC7819943", "about": "“Rice protein-binding microarrays: a tool to detect cis-acting elements near promoter regions in rice”", "note": "This is one part of the list.", "data": [{"biological_target": "OsWRKY34 (Oryza sativa, UniProt Q0JBA9 1-250)", "assay": "protein-binding microarray (RPBM); PBS, 2% BSA, 51.3 ng/ul salmon testes DNA, 50 uM zinc acetate, 200 nM TF, 25 C, 1 h; high values mean tight binding", "details": "protein: recombinant; tags: N-terminal polyhistidine and DsRed monomer fusion (pET32a); label: CyDye5-dUTP incorporated in the synthesized complementary strand; 3' TTTTT single-stranded linker to array surface; dsDNA, one strand shown", "outline": "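Transcription factors, each fused N-terminally to a polyhistidine tag and DsRed, were expressed in E. coli BL21-CodonPlus and purified on Ni–NTA. A custom Agilent array was made double-stranded by primer extension with Cy5-dUTP and blocked with 2% BSA. It was incubated with 200 nM protein in PBS, 2% BSA, salmon testes DNA and 50 µM zinc acetate at 25 °C for 1 h, then washed. The binding signal is per-feature fluorescence intensity (arbitrary units) read on an Axon 4000B scanner.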", "values": [{"sequence": "ATCACCATTTACTCCTATTGCCCTATTGGCATCACATCCACGGAGTCACCTAGTGCAG", "binding signal": "8890 fluorescence intensity (a.u.)"}, {"sequence": "GTGTTTGTGCTTCAGTTAACACCGTTACATGTTCTTAACACGGAGTCACCTAGTGCAG", "binding signal": "8160 fluorescence intensity (a.u.)"}, {"sequence": "AGCCGGATCACTTTGATGTCATCTTCAATCATACCATTTTCGGAGTCACCTAGTGCAG", "binding signal": "8630 fluorescence intensity (a.u.)"}, {"sequence": "GCCTCATCCCGTTGCCATCTCCAAGAGCTCGCCTGCCACTCGGAGTCACCTAGTGCAG", "binding signal": "8840 fluorescence intensity (a.u.)"}, {"sequence": "ATAATGCATGCCTAGGCTCGAGTTCTTTGTGCATTTGGAGCGGAGTCACCTAGTGCAG", "binding signal": "8860 fluorescence intensity (a.u.)"}, {"sequence": "TTCGTGTTTTGCTGGAGTTGGAGTTGCTGCATTGGGTTTACGGAGTCACCTAGTGCAG", "binding signal": "10700 fluorescence intensity (a.u.)"}, {"sequence": "GGCAAACAATGCTCTCAGCCTCGCTTAGCTTTCACTCCACCGGAGTCACCTAGTGCAG", "binding signal": "8030 fluorescence intensity (a.u.)"}, {"sequence": "CATGCACGGTAACTTTTTCAGTTTTTAAATCTACAGTATGCGGAGTCACCTAGTGCAG", "binding signal": "8610 fluorescence intensity (a.u.)"}, {"sequence": "TCATTTATAAATATACCATTTCGCTTATTGTCCCCATAAGCGGAGTCACCTAGTGCAG", "binding signal": "8060 fluorescence intensity (a.u.)"}, {"sequence": "TTTGCATTTATCCGTTTTCTGGCTGAATCATTCCCTGCAACGGAGTCACCTAGTGCAG", "binding signal": "9420 fluorescence intensity (a.u.)"}, {"sequence": "CCAACTGTCCACAGTGTCACTCTGACCCATTTCGTTTATACGGAGTCACCTAGTGCAG", "binding signal": "8110 fluorescence intensity (a.u.)"}, {"sequence": "CCCCACCACCGCGCCTGAATTTTTTCCTTTGCACTGGCGCCGGAGTCACCTAGTGCAG", "binding signal": "12700 fluorescence intensity (a.u.)"}, {"sequence": "CATTTCCATTCTTCAGAAGTTCACCCTTCAATCCCTTTTTCGGAGTCACCTAGTGCAG", "binding signal": "8600 fluorescence intensity (a.u.)"}, {"sequence": "ACATATACGTAATATTCGTGGGCACTAGGATTTGAAACCTCGGAGTCACCTAGTGCAG", "binding signal": "8660 fluorescence intensity (a.u.)"}, {"sequence": "TCCACTAGAAGTATACATCATGTCATTAACATCCATTTTCCGGAGTCACCTAGTGCAG", "binding signal": "9870 fluorescence intensity (a.u.)"}, {"sequence": "ATGCTCCTATTTATGTGTTCCATTCCATTTTCTTTAGGAGCGGAGTCACCTAGTGCAG", "binding signal": "10300 fluorescence intensity (a.u.)"}, {"sequence": "GCTACCGCACACATACTGCCATTTGGCTAACAATTTTATCCGGAGTCACCTAGTGCAG", "binding signal": "8490 fluorescence intensity (a.u.)"}, {"sequence": "GAGGAACAAGTGGGTGGGTCCAGTGGGATGTGCATGTGGGCGGAGTCACCTAGTGCAG", "binding signal": "9220 fluorescence intensity (a.u.)"}, {"sequence": "CATTTTGTCTATGCATTCTCTTCTGTTTCTATCTGTTGATCGGAGTCACCTAGTGCAG", "binding signal": "9630 fluorescence intensity (a.u.)"}, {"sequence": "TTACATCAAAACTTTCTTACACACACAAACTTTCAACTTTCGGAGTCACCTAGTGCAG", "binding signal": "8550 fluorescence intensity (a.u.)"}, {"sequence": "GTTCTAGAATGTCCTGTTTAACATCACACTCGATTGGACACGGAGTCACCTAGTGCAG", "binding signal": "9410 fluorescence intensity (a.u.)"}, {"sequence": "ATGTGCTTACGGTTGACTTATATAGTCTGCTATCGTACCTCGGAGTCACCTAGTGCAG", "binding signal": "10600 fluorescence intensity (a.u.)"}, {"sequence": "ACAGATATTTTCGCTTTTCAACCAGCGTTGACTCGTCGTTCGGAGTCACCTAGTGCAG", "binding signal": "13400 fluorescence intensity (a.u.)"}, {"sequence": "TCTGCCTGTACCACTAATCTTCAAGCGAGCAAAGGCAAACCGGAGTCACCTAGTGCAG", "binding signal": "8220 fluorescence intensity (a.u.)"}, {"sequence": "TGGCGAGGAGGTGGTGGTGGTTGTGGTGGGTGCGGCCATGCGGAGTCACCTAGTGCAG", "binding signal": "12100 fluorescence intensity (a.u.)"}, {"sequence": "ATGCCGATGCCCATGCTTCATTTCTCAAGTTCTTTAATATCGGAGTCACCTAGTGCAG", "binding signal": "9120 fluorescence intensity (a.u.)"}, {"sequence": "TACTACCTCCGTTTTTAATAGATGACGCCGTTGACTTTTTCGGAGTCACCTAGTGCAG", "binding signal": "23700 fluorescence intensity (a.u.)"}, {"sequence": "TCCCAACCGCCCGCCCGCGCGCCGCCCCTTCCTGCCGCCCCGGAGTCACCTAGTGCAG", "binding signal": "8080 fluorescence intensity (a.u.)"}, {"sequence": "GGGCAGTTCAGTTTTCTTTTGGTTTATATATTCCTACTAGCGGAGTCACCTAGTGCAG", "binding signal": "10100 fluorescence intensity (a.u.)"}, {"sequence": "TGTCTAGTTAGCTGAATTCATCTCGATCCTTTTATTAATTCGGAGTCACCTAGTGCAG", "binding signal": "8820 fluorescence intensity (a.u.)"}, {"sequence": "ACCACCCGCGCGACCTGTGCTCGCGTCTTTTTGGCGCCGCCGGAGTCACCTAGTGCAG", "binding signal": "12300 fluorescence intensity (a.u.)"}, {"sequence": "GGTAGCGGTGTGTGGAGGAGAGCATTGGCAGTTAGAGGGTCGGAGTCACCTAGTGCAG", "binding signal": "9820 fluorescence intensity (a.u.)"}, {"sequence": "TGGTTGTTGAGGTTTATATAAGTGTTCGACCGGTATCGCTCGGAGTCACCTAGTGCAG", "binding signal": "8050 fluorescence intensity (a.u.)"}, {"sequence": "CAAGACCCTGATAAATTGGTTGCTCTCGTCTCTTCTTGCTCGGAGTCACCTAGTGCAG", "binding signal": "8030 fluorescence intensity (a.u.)"}, {"sequence": "TAAGCCGAACCTTTCATTTGATAATTGTCACTTGTTCTTGCGGAGTCACCTAGTGCAG", "binding signal": "8520 fluorescence intensity (a.u.)"}, {"sequence": "TGTCCTGCGTAATTAGCACATCACATTCAGCTTTCTGCTTCGGAGTCACCTAGTGCAG", "binding signal": "8970 fluorescence intensity (a.u.)"}, {"sequence": "CTCCGCCGTCGTTCCTGCAGCTTCCGCCGCATCCTCGCCGCGGAGTCACCTAGTGCAG", "binding signal": "9250 fluorescence intensity (a.u.)"}, {"sequence": "ATGAATAGTACATTATGCGTGACTTATGTTTTTTATTTTTCGGAGTCACCTAGTGCAG", "binding signal": "8520 fluorescence intensity (a.u.)"}, {"sequence": "TGCCAACAATGGTGTAAATTTCTATCTCCATCCTTTATTTCGGAGTCACCTAGTGCAG", "binding signal": "9930 fluorescence intensity (a.u.)"}, {"sequence": "GTTCTGGTTGGGATCGATTTCTTCTTCCCCTTTGTTGCTTCGGAGTCACCTAGTGCAG", "binding signal": "9700 fluorescence intensity (a.u.)"}, {"sequence": "GATGTGGGTAGTATGGATTTTTTTTTCTGTTTGTCCTCCACGGAGTCACCTAGTGCAG", "binding signal": "12900 fluorescence intensity (a.u.)"}, {"sequence": "GTATATTCTGATTCAATTATAATTTCCCCATCGATCATTTCGGAGTCACCTAGTGCAG", "binding signal": "9110 fluorescence intensity (a.u.)"}]}]}
